From the supplement of paper PMC10398353 come the findings set out here.

Each structure is given as a SMILES string. Where a name gives a salt, the structure may show the parent alone. The list shows a part of the results. The data scatter; read single values as rough.

This assay concerns Salmonella enterica serovar Typhimurium ST313 D23580. As to the kind of experiment: normalized bacterial growth (OD600 20 h minus 0 h, interquartile-mean normalized) (fraction of plate interquartile mean); higher = more bacterial growth (less inhibition). The settings on record: LPM (pH 5.8, low phosphate, low Mg2+), concentration: 10 µM, temperature: 37 °C.
With `NC12CC3CC(CC(C3)C1)C2` [Adamantamine fumarate], the normalized bacterial growth worked out at 0.938.

For `NC12CC3CC(CC(C3)C1)C2` [Amantadine hydrochloride], the normalized bacterial growth was 0.89.

In turn, `N#C/C(=C\c1ccc(O)c(O)c1)C(=O)c1ccc(O)c(O)c1` [Tyrphostin AG 538] yielded a normalized bacterial growth of 0.863.

As to `O=c1c2ccccc2oc2ccccc12`, the normalized bacterial growth is 0.505.

`O=C(O)c1cc(O)c2c(c1)[C@@H]([C@H]1c3cc(C(=O)O)cc(O)c3C(=O)c3c(O[C@@H]4O[C@H](CO)[C@@H](O)[C@H](O)[C@H]4O)cccc31)c1cccc(O[C@@H]3O[C@H](CO)[C@@H](O)[C@H](O)[C@H]3O)c1C2=O` came in with a normalized bacterial growth of 1.08.

As to `CC1(C2CCCC2)Cc2cc(OCC(=O)O)c(Cl)c(Cl)c2C1=O` (centres undefined), the normalized bacterial growth came out at 1.04.

As for `N=C1C=CC(=C(c2ccc(N)cc2)c2ccc(N)cc2)C=C1`, the normalized bacterial growth was 0.866.

`C=C1C2CC[C@@]3(C)[C@H](c4ccoc4)OC(=O)C[C@]13O[C@H]1CC(O)C(C)(C)C(CC(=O)OC)[C@@]21C` (stereo partly drawn) [3alpha-HYDROXY-3-DEOXYANGOLENSIC ACID METHYL ESTER] came in with a normalized bacterial growth of 1.33.

Compound `Brc1ccc([C@H]2CN3CCSC3=N2)cc1` [S(-)-p-Bromotetramisole oxalate] showed a normalized bacterial growth of 0.411.

With `C=CC[C@H](N)C(=O)O` [L-allylglycine], the normalized bacterial growth came out at 1.16.

With `C[C@@H]1NC(=O)NC1=O` [Methylhydantoin-5-(L)], the normalized bacterial growth was found to be 0.985.

Compound `O=C(O)c1ccccc1Nc1ccccc1` [N-Phenylanthranilic acid] returned a normalized bacterial growth of 1.17.

Regarding `COc1c(O)cc2c(-c3ccccc3)cc(=O)oc2c1OC`, the normalized bacterial growth was 0.905.

With `CC(=O)O[C@H]1CC[C@]2(C)C3=C(CC[C@H]2C1(C)C)[C@]1(C)CC[C@H]([C@H](C)CCC=C(C)C)[C@@]1(C)CC3`, the normalized bacterial growth is 1.01.

Turning to `CCCCCCCCCCCCCCCC(=O)NCCO` [Palmitoylethanolamide], the normalized bacterial growth came to 1.05.

Take `CN1CCN(C2=Nc3cc(Cl)ccc3Nc3ccccc32)CC1` [Clozapine]: the normalized bacterial growth was found to be 0.669.

`CCC(NC(C)C)C(O)c1ccc(O)c(O)c1` (centres undefined) [Isotharine mesylate] displayed a normalized bacterial growth of 0.909.

In turn, `CCC(Cc1c(I)cc(I)c(N)c1I)C(=O)O` (centres undefined) had a normalized bacterial growth of 1.08.

Take `CN1CCc2cccc3c2[C@H]1Cc1ccc(O)c(O)c1-3` [Apomorphine hydrochloride hemihydrate]: the normalized bacterial growth came to 0.536.

For the compound `CN1CCc2cccc3c2[C@H]1Cc1ccc(O)c(O)c1-3` [R(-) Apomorphine hydrochloride hemihydrate], the normalized bacterial growth stood at 0.787.

In turn, `O=C1C=C2CC3(O)COc4c(ccc(O)c4O)C3=C2C=C1O` (centres undefined) returned a normalized bacterial growth of 1.08.

In the case of `C[C@]12CC[C@@H]3c4ccc(O)cc4CC[C@H]3[C@@H]1CC[C@@H]2OC(=O)CCC1CCCC1`, the normalized bacterial growth is 1.

Compound `CO[C@@]1(NC(=O)CSCC#N)C(=O)N2C(C(=O)O)=C(CSc3nnnn3C)CS[C@@H]21` showed a normalized bacterial growth of 1.02.

`CO[C@@]1(NC(=O)CSCC#N)C(=O)N2C(C(=O)O)=C(CSc3nnnn3C)CS[C@@H]21` [Cefmetazole sodium] displayed a normalized bacterial growth of 0.89.
